Data taken from US20100036088A1, “Selective poly-N-substituted glycine antibiotics” (priority 2008, published 2010).
“And” between values parts separate entries of the source, which are not always exact repeats. Equal values may be shown once. Read-outs that look alike come from different tables or passages of the source. Numbered stars: 1 amine (or outer) side, 2 acyl side, 3 side chain; on linkers, the order of the positions; unused ones are H or OH. Square brackets hold non-standard residues; d marks the D form. Peptide text beside a SMILES is read from it. X1 = CC(C)[C@H](C)N(CC(=O)[*:2])[*:1]; X2 = CCC[C@H](C)N(CC(=O)[*:2])[*:1]; Nspe = C[C@H](NCC(=O)O)c1ccccc1; Nphe = O=C(O)CNCc1ccccc1; Nlys = NCCCCNCC(=O)O

Legend:
Type in all cases: cell-based
B. subtilis (ATCC 6633) = conditions: Table 6; 10% hemolytic dose / MIC B. subtilis
Method: (§1) Whereas the preceding generation of molecules was designed to elucidate structure function relationships of specific molecular parameters (chirality, length, hydrophobicity, etc.), another generation compounds were designed explicitly to explore effects on selectivity. Antimicrobial activity of these compounds was tested against bacterial strains E. coli (ATTC 35218) and B. subtilis (ATTC 6633) in cation-adjusted MHB using the microdilution protocols previously described. The sequences, antimicrobial activities, hemolytic activities, and metabolic inhibitory concentrations against NIH 3T3 mouse fibroblast cells are summarized in Table 3 and the rationale of their design is described below.
(§2) The potencies of all compounds were determined against representative Gram-negative (E. coli ATCC 35218) and Gram-positive (B. subtilis ATCC 6633) biosafety level 1 (BSL1) organisms. In addition to hemolytic activity, the conventional measure of toxicity to mammalian cells, the effect of each ampetoid on NIH 3T3 mouse fibroblast cells was determined using the MTS tetrazolium salt-based calorimetric assay. While hemolysis measures the degree to which erythrocytes are lysed, the MTS assay indirectly quantifies the extent to which cellular metabolic activity is inhibited.
(§3) Screening antibacterial assays. MICs were determined in 96-well microtiter plates in accordance with CLSI M7-A6 protocols. Peptoid solutions with 50 μL total volume were prepared using 2:1 serial dilutions. 50 μL of bacteria inoculum (1×10^6 CFU/mL) prepared in cation-adjusted Mueller-Hinton broth (CAMHB) was added to test wells. Control wells contained 100 μL MHB (no growth) or 50 μL inoculums with 50 μL MHB with no peptoid. […] Reported values were reproducible over three experiments, each containing two parallel trials.

E. coli (ATCC 35218) = conditions: Table 6, 10% hemolytic dose / MIC E. coli
Method: as §1, §2, §3

[1] = test system: Enterobacter aerogenes ATCC 35029; conditions: Table 7B; 10% hemolytic dose / MIC
Method: (§4) Antibacterial assays. MICs were determined according to CLSI M7-A6 protocols in a 96-well microtiter plate. In test wells, 50 μL bacterial inoculum (5×10^5 CFU/ml) in Mueller-Hinton broth (MHB) was added to 50 μL peptoid solution in MHB (prepared by 1:2 serial dilutions). Positive controls contained 50 μL inoculum and 50 μL MHB without peptoid. […] MIC values reported were reproducible between three independent experimental replicates, each consisting of two parallel trials. Broad-spectrum antimicrobial susceptibility testing was performed against BSL2 pathogens by Nova Biologicals, Inc. (Conroe, Tex.).
(§5) Broad-spectrum antibacterial assays. MICs of compounds were determined by microdilution procedure in Mueller-Hinton broth (MHB) in accordance with CLSI M7-A6 protocols in a manner similar to that described for the screen antibacterial assays. Inoculated microtiter plates were incubated at 35° C. for 24 hours prior to the result being recorded. Four ATCC strains that were used as standards are recommended by CLSI: Pseudomonas aeruginosa ATCC 27853, Escherichia coli ATCC 25922, Staphylococcus aureus ATCC 29213 and Enterococcus faecalis ATCC 29212. Other strains from the ATCC collection include Proteus vulgaris ATCC 49132, Proteus mirabilis ATCC 35659, Klebsiella pneumoniae ATCC 33495, Enterobacter aerogenes ATCC 35029 and Serratia marcescens ATCC 13880. S. aureus NRS100 (COL) is a well characterized methicillian-resistant S. aureus (MRSA) strain. The strains S. aureus VAN1 and S. aureus VAN2, vancomycin-resistant MRSA strains that were isolated in Michigan and Pennsylvania, were the first vancomycin-resistant strains clinically isolated. S. aureus NRS119 and S. aureus NRS120 are linezolid-resistant isolates from the Network on Antimicrobial Resistance in S. aureus (NARSA) collection. E. faecalis 99 and E. faecium 106 are vancomycin-resistant enterococcal strains.

Enterococcus faecalis 99 = conditions: Table 7B; 10% hemolytic dose / MIC
Method: as §4, §5

[2] = test system: Enterococcus faecalis ATCC 29212; conditions: Table 7B; 10% hemolytic dose / MIC
Method: as §4, §5

Enterococcus faecium 106 = conditions: Table 7B; 10% hemolytic dose / MIC
Method: as §4, §5

[3] = test system: Escherichia coli ATCC 25922; conditions: Table 7B; 10% hemolytic dose / MIC
Method: as §4, §5

[4] = test system: Klebsiella pneumoniae ATCC 33495; conditions: Table 7B; 10% hemolytic dose / MIC
Method: as §4, §5

[5] = test system: Proteus mirabilis ATCC 35659; conditions: Table 7B; 10% hemolytic dose / MIC
Method: as §4, §5

[6] = test system: Proteus vulgaris ATCC 49132; conditions: Table 7B; 10% hemolytic dose / MIC
Method: as §4, §5

[7] = test system: Pseudomonas aeruginosa ATCC 27853; conditions: Table 7B; 10% hemolytic dose / MIC
Method: as §4, §5

[8] = test system: Serratia marcescens ATCC 13880; conditions: Table 7B; 10% hemolytic dose / MIC
Method: as §4, §5

[9] = test system: Staphylococcus aureus ATCC 29213; conditions: Table 7B; 10% hemolytic dose / MIC
Method: as §4, §5

[10] = test system: Staphylococcus aureus NRS100 (COL); conditions: Table 7B; 10% hemolytic dose / MIC
Method: as §4, §5

[11] = test system: Staphylococcus aureus NRS119; conditions: Table 7B; 10% hemolytic dose / MIC
Method: as §4, §5

[12] = test system: Staphylococcus aureus NRS120; conditions: Table 7B; 10% hemolytic dose / MIC
Method: as §4, §5

[13] = test system: Staphylococcus aureus VAN1; conditions: Table 7B; 10% hemolytic dose / MIC
Method: as §4, §5

[14] = test system: Staphylococcus aureus VAN2; conditions: Table 7B; 10% hemolytic dose / MIC
Method: as §4, §5

E. coli JM109 = conditions: Table 1
Excerpt: An initial set of 15 ampetoid analogs was synthesized to determine whether peptoids are affected by structural and sequence modifications in a manner consistent with AMP activities. The designs for ampetoids in this library were derived from two antibacterial and selective amphipathic dodecamers, 1 and 2. Peptoid 1 [H-(Nlys-Nspe-Nspe)4—NH2] is composed of 2/3 Nspe, the peptoid analog of phenylalanine, and 1/3 Nlys, the peptoid analog of lysine (see FIG. 1 for the structures of representative peptoid monomers and corresponding N-substituents). Peptoid 2 [H-(Nlys-Nssb-Nspe)4—NH2] contains 1/3 isoleucine-like Nssb monomers in place of Nspe. The variant sequences were designed to effect changes in chirality, length, hydrophobicity, charge, and amphipathicity. All of these compounds were tested for antibacterial activity against representative BSL1 Gram-negative (E. coli JM109) and Gram-positive (B. subtilis BR151) bacterial strains. As an initial measure of selectivity, the lytic activity of the peptoids was determined against human erythrocytes. Table 1 summarizes the sequences synthesized, the solvent composition at RP-HPLC elution as a relative measure of molecular hydrophobicity, and antibacterial and hemolytic activities.
Antibacterial assays. MICs were determined according to CLSI M7-A6 protocols in a 96-well microtiter plate. […]

## CC(C)[C@H](C)N(CC(N)=O)C(=O)CN(C(=O)CN(CCCCN)C(=O)CN(C(=O)CN(C(=O)CN(CCCCN)C(=O)CN(C(=O)CN(C(=O)CN(CCCCN)C(=O)CN(C(=O)CN(C(=O)CNCCCCN)[C@@H](C)C(C)C)[C@@H](C)C(C)C)[C@@H](C)C(C)C)[C@@H](C)C(C)C)[C@@H](C)C(C)C)[C@@H](C)C(C)C)[C@@H](C)C(C)C [1-Nsdpall, H-(Nlys-Nsdp-Nsdp)4-NH2]
B. subtilis (ATCC 6633)
  Selectivity ratio SRB. subtilis: 256
E. coli (ATCC 35218)
  Selectivity ratio SRE. coli: > 8

## CC(C)[C@H](C)N(CC(=O)N(CC(=O)N(CCCCN)CC(=O)N(CC(=O)N(CC(=O)N(CCCCN)CC(=O)N(CC(=O)N(CC(=O)N(CCCCN)CC(=O)N(CC(=O)N(CC(N)=O)[C@@H](C)c1ccccc1)[C@@H](C)C(C)C)[C@@H](C)c1ccccc1)[C@@H](C)C(C)C)[C@@H](C)c1ccccc1)[C@@H](C)C(C)C)[C@@H](C)c1ccccc1)C(=O)CNCCCCN [1-Nsdp2,5,8,11, H-(Nlys-Nsdp-Nspe)4-NH2] (H-[Nlys][X1][Nspe][Nlys][X1][Nspe][Nlys][X1][Nspe][Nlys][X1][Nspe]-NH2)
B. subtilis (ATCC 6633)
  Selectivity ratio SRB. subtilis: 142
E. coli (ATCC 35218)
  Selectivity ratio SRE. coli: > 9.7
E. coli (ATCC 35218); listed as 1-Nspd2,5,8,11
  Selectivity ratio SRE. coli: 9.7
[1]
  Selectivity ratio (SR) E. aerogenes ATCC 35029: 5.8
Enterococcus faecalis 99
  Selectivity ratio (SR) E. faecalis 99: 2.9
[2]
  Selectivity ratio (SR) E. faecalis ATCC 29212: 23
Enterococcus faecium 106
  Selectivity ratio (SR) E. faecium 106: 46
[3]
  Selectivity ratio (SR) E. coli ATCC 25922: 23
[4]
  Selectivity ratio (SR) K. pneumoniae ATCC 33495: 23
[5]
  Selectivity ratio (SR) P. mirabilis ATCC 35659: <1.5
[6]
  Selectivity ratio (SR) P. vulgaris ATCC 49132: 5.8
[7]
  Selectivity ratio (SR) P. aeruginosa ATCC 27853: 12
[8]
  Selectivity ratio (SR) S. marcescens ATCC 13880: <1.5
[9]
  Selectivity ratio (SR) S. aureus ATCC 29213: 23
[10]
  Selectivity ratio (SR) S. aureus NRS100 (COL): 23
[11]
  Selectivity ratio (SR) S. aureus NRS119: 12
[12]
  Selectivity ratio (SR) S. aureus NRS120: 23
[13]
  Selectivity ratio (SR) S. aureus VAN1: 23
[14]
  Selectivity ratio (SR) S. aureus VAN2: 23

## CCC[C@H](C)N(CC(=O)N(CC(N)=O)[C@@H](C)c1ccccc1)C(=O)CN(CCCCN)C(=O)CN(C(=O)CN(C(=O)CN(CCCCN)C(=O)CN(C(=O)CN(C(=O)CN(CCCCN)C(=O)CN(C(=O)CN(C(=O)CNCCCCN)[C@@H](C)CCC)[C@@H](C)c1ccccc1)[C@@H](C)CCC)[C@@H](C)c1ccccc1)[C@@H](C)CCC)[C@@H](C)c1ccccc1 [2-Nsap2,5,8,11] (H-[Nlys][X2][Nspe][Nlys][X2][Nspe][Nlys][X2][Nspe][Nlys][X2][Nspe]-NH2)
E. coli JM109
  Selectivity ratio, SR = (HD10)/(E. coli MIC): 16 and >16

## NCCCCNCC(=O)N(CC(=O)N(CC(=O)N(CCCCN)CC(=O)N(CC(=O)N(CC(=O)N(CCCCN)CC(=O)N(CC(=O)N(CC(=O)N(CCCCN)CC(=O)N(CC(=O)N(CC(N)=O)Cc1ccccc1)Cc1ccccc1)Cc1ccccc1)Cc1ccccc1)Cc1ccccc1)Cc1ccccc1)Cc1ccccc1)Cc1ccccc1 [1achiral, H-(Nlys-Npm-Npm)4-NH2] (H-[Nlys][Nphe][Nphe][Nlys][Nphe][Nphe][Nlys][Nphe][Nphe][Nlys][Nphe][Nphe]-NH2)
B. subtilis (ATCC 6633)
  Selectivity ratio SRB. subtilis: 235
E. coli (ATCC 35218)
  Selectivity ratio SRE. coli: 15
[1]
  Selectivity ratio (SR) E. aerogenes ATCC 35029: 2.4
Enterococcus faecalis 99
  Selectivity ratio (SR) E. faecalis 99: 4.9
[2]
  Selectivity ratio (SR) E. faecalis ATCC 29212: 19
Enterococcus faecium 106
  Selectivity ratio (SR) E. faecium 106: 79
[3]
  Selectivity ratio (SR) E. coli ATCC 25922: 19
[4]
  Selectivity ratio (SR) K. pneumoniae ATCC 33495: 39
[5]
  Selectivity ratio (SR) P. mirabilis ATCC 35659: <2.4
[6]
  Selectivity ratio (SR) P. vulgaris ATCC 49132: 9.8
[7]
  Selectivity ratio (SR) P. aeruginosa ATCC 27853: 19
[8]
  Selectivity ratio (SR) S. marcescens ATCC 13880: 2.4
[9]
  Selectivity ratio (SR) S. aureus ATCC 29213: 39
[10]
  Selectivity ratio (SR) S. aureus NRS100 (COL): 39
[11]
  Selectivity ratio (SR) S. aureus NRS119: 19
[12]
  Selectivity ratio (SR) S. aureus NRS120: 19
[13]
  Selectivity ratio (SR) S. aureus VAN1: 39
[14]
  Selectivity ratio (SR) S. aureus VAN2: 39
